Here are results for 1 substance from PMC13212363.

In the experiment the target is T1, NSF-tagged PPP2R2B (UniProt Q00005).
T1 sequence: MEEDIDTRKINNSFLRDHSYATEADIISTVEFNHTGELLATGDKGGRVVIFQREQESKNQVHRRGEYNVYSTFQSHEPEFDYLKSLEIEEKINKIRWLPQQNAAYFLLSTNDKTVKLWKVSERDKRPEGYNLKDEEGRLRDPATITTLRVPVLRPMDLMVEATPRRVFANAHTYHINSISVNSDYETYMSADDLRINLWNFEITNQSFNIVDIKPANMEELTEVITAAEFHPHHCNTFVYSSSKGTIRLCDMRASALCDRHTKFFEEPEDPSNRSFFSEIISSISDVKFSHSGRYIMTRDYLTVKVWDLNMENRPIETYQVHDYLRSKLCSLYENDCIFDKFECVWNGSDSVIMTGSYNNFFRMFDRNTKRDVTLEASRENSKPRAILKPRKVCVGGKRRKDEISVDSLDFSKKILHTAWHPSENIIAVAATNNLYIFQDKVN
Nature of the experiment: pull-down; NSF-tagged B subunit co-expressed with myc-tagged PPP2CA constructs in HEK293; lysate (50 mM Tris-HCl 7.5, 150 mM NaCl, 1 mM EDTA, 2.5 mM EGTA, 1% NP-40) on streptavidin beads for 4 h, washed three times; western blot. (In general: In western blotting, separated proteins are transferred to a membrane and probed.)

These are yes or no findings as the source states them, for the method shown. In cells and extracts the contact can be indirect. A result given as binding can be weak or reduced; the word gives no strength. Where a sequence is shown, tags or fusion partners need not be part of it.

As to “endogenous catalytic PP2A subunit (human (endogenous in HEK293)) (enzyme)”, the binding result is recorded as “binds”.
